Results reported in patent publication US20180106727A1, “ULTRA-HIGH-SENSITIVE ASSAY OF PROTEIN AND NUCLEIC ACID AND KIT, AND NOVEL ENZYME SUBSTRATE” (priority 2011, published 2018).

How the values were obtained:
Pumilio protein [1] = experiment: ELISA assay of Pumilio protein (β-Galactosidase system), detection and quantification limit
Pumilio protein [2] = experiment: ELISA assay of Pumilio protein (Alkaline phosphatase system), detection and quantification limit
alkaline phosphatase = details: ALP assay
[3] = conventional substrate, no cycling method printed

Structure (SMILES): Cc1cc(=O)oc2cc(O[C@@H]3O[C@H](CO)[C@H](O)[C@H](O)[C@H]3O)ccc12 [4-MUG, reference compound]
- Detection limit (Pumilio protein [1]; [3]): 2.07e-16 mol
- Quantification limit (Pumilio protein [1]; [3]): 6.91e-16 mol

Structure (SMILES): C[C@]12CC[C@@H](OP(=O)(O)O)C[C@@H]1CC[C@@H]1[C@@H]2CC[C@]2(C)C(=O)CC[C@@H]12 [5α-A3P, 5α-Androsterone 3-Phosphate]
- Detection limit (Pumilio protein [2]; One-step): 3.57 × 10^−14
- Quantification limit (Pumilio protein [2]; One-step): 7.3 × 10^−14
- Detection limit (Pumilio protein [2]; Two-steps): 2.63 × 10^−16
- Quantification limit (Pumilio protein [2]; Two-steps): 8.76 × 10^−16

Structure (SMILES): C[C@]12CC[C@@H](OP(=O)(O)O)C[C@H]1CC[C@@H]1[C@@H]2CC[C@]2(C)C(=O)CC[C@@H]12 [5β-A3P, 5β-Androsterone 3-Phosphate]
- Detection limit (Pumilio protein [2]; One-step): 3.96 × 10^−15
- Quantification limit (Pumilio protein [2]; One-step): 1.32 × 10^−14
- Detection limit (Pumilio protein [2]; Two-steps): 1.2 × 10^−16
- Quantification limit (Pumilio protein [2]; Two-steps): 4 × 10^−16

Structure (SMILES): C[C@]12CC[C@@H](O[C@@H]3O[C@H](CO)[C@H](O)[C@H](O)[C@H]3O)C[C@H]1CC[C@@H]1[C@@H]2CC[C@]2(C)C(=O)CC[C@@H]12 [5β-AG, 5β-Androsterone-3β-D-Galactoside]
- Detection limit (Pumilio protein [1]; One-step): 2.21e-17 mol
- Quantification limit (Pumilio protein [1]; One-step): 7.35e-17 mol
- Detection limit (Pumilio protein [1]; Two-steps): 1.65e-17 mol
- Quantification limit (Pumilio protein [1]; Two-steps): 5.51e-17 mol

Structure (SMILES): CO[C@H]1CC[C@H]2[C@@H]3CC[C@@H]4C[C@H](OP(=O)(O)O)CC[C@]4(C)[C@H]3CC[C@]12C [17-OMe 5β-A3P]
- Detection limit (Pumilio protein [2]; One-step): 4.0 × 10^−17
- Quantification limit (Pumilio protein [2]; One-step): 1.3 × 10^−16
- Detection limit (Pumilio protein [2]; Two-steps): 2.45 × 10^−18
- Quantification limit (Pumilio protein [2]; Two-steps): 8.17 × 10^−18
- Detection limit (alkaline phosphatase; One-step): 3.25e-18 mol
- Quantification limit (alkaline phosphatase; One-step): 1.08e-17 mol
- Detection limit (alkaline phosphatase; Two-steps): 8.19e-20 mol
- Quantification limit (alkaline phosphatase; Two-steps): 2.73e-19 mol

Structure (SMILES): CO[C@H]1CC[C@H]2[C@@H]3CC[C@@H]4C[C@H](O[C@@H]5O[C@H](CO)[C@H](O)[C@H](O)[C@H]5O)CC[C@]4(C)[C@H]3CC[C@]12C [17-OMe 5β-AG]
- Detection limit (Pumilio protein [1]; One-step): 3.24e-17 mol
- Quantification limit (Pumilio protein [1]; One-step): 1.08e-16 mol
- Detection limit (Pumilio protein [1]; Two-steps): 3.17e-17 mol
- Quantification limit (Pumilio protein [1]; Two-steps): 1.06e-16 mol

Structure (SMILES): O=[N+]([O-])c1ccc(OP(=O)(O)O)cc1 [p-NPP, p-Nitrophenyl Phosphate]
- Detection limit (Pumilio protein [2]; [3]): 3.97 × 10^−16
- Quantification limit (Pumilio protein [2]; [3]): 1.32 × 10^−15

Like-named read-outs stand apart in the source and are kept apart here.
